# Literature values, collected in US7384959B2, “Treatment of convulsive states” (priority 1999, dated 2008).
# At least one structure is not confirmed: it was looked up by name or label, or the drawing left a doubt.
# System: patients
# Conditions: bipolar disorder; cited from earlier work
smiles,measurement,value
[Li] [lithium],share of patients in whom treatment is effective,50%
